Laboratory results: PubChem BioAssay AID493246 (Drosophila RNAi Screening Center, 2011)

- Purpose: 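Identify essential fly genes by loss of cell viability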 (primary screen)
- Cell system: Drosophila Kc and S2R+ cells
- Reagents: long dsRNA against Drosophila genes
- Read-out: 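Raw, unnormalised count of remaining cells in each well; per-plate z-scores of cell number underlie the calls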
- Reading the numbers: Kc cell number and S2R+ cell number: higher = more cells remaining
- Rule for the call: 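Active when the per-plate z-score of cell number is 3 or more in the direction of fewer cells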
The screen tested about 21,000 reagents; this is a random part of those that have a named target and a result. Of all reagents, 429 (2%) got an active call. 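Values are raw and not normalised between plates; calls rest on per-plate z-scores that were not deposited.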 Unmarked entries are inactive. Reagents against one gene are numbered here. Not given: the amount of reagent, the time to read-out.

gene	reagent	Kc cell number, rep 1	Kc cell number, rep 2	S2R+ cell number, rep 1	S2R+ cell number, rep 2
tbrd-2	1	1.59e6	1.62e6	1.26e6	1.50e6
GluRIA (Glutamate receptor IA)	1	1.51e6	1.52e6	1.28e6	1.31e6
mEFTu2 (mitochondrial translation elongation factor Tu 2)	1	1.19e6	1.41e6	1.05e6	1.10e6
CG1958	1	1.49e6	1.49e6	1.10e6	1.13e6
CG13884	1	1.43e6	1.44e6	1.08e6	1.28e6
CG17778	1	1.69e6	1.60e6	9.78e5	1.13e6
ppk29 (pickpocket 29)	1	1.57e6	1.62e6	1.34e6	1.44e6
Cpr62Bb (Cuticular protein 62Bb)	1	1.50e6	1.37e6	1.15e6	1.31e6
ninaE (neither inactivation nor afterpotential E)	1	1.19e6	1.25e6	1.08e6	1.37e6
Cip4 (Cdc42-interacting protein 4)	1	1.70e6	1.81e6	1.05e6	1.29e6
Cip4 (Cdc42-interacting protein 4)	2	1.38e6	1.45e6	1.24e6	1.20e6
RabX2	1	1.39e6	1.49e6	1.07e6	1.19e6
CYLD (Cylindromatosis)	1	1.51e6	1.51e6	1.22e6	1.27e6
Fbl6 (F-box and leucine-rich repeat protein 6)	1	1.35e6	1.40e6	1.08e6	1.10e6
CG3638	1	1.47e6	1.54e6	1.05e6	1.16e6
CG2004	1	1.67e6	1.70e6	1.13e6	1.20e6
CG1142	1	1.68e6	1.90e6	1.21e6	1.33e6
ND-20L (NADH dehydrogenase (ubiquinone) 20 kDa subunit-like)	1	1.59e6	1.62e6	1.01e6	1.14e6
CG1542	1	4.11e5		6.94e5	
lectin-29Ca	1	1.63e6	1.64e6	1.23e6	1.36e6
ldbr (lariat debranching enzyme)	1	1.44e6	1.44e6	1.33e6	1.24e6
ZAP3	1	6.45e5		9.14e5	
ZAP3	2	1.66e6	1.57e6	1.06e6	1.18e6
ZAP3	3	1.66e6	1.64e6	1.00e6	1.14e6
NetA (Netrin-A)	1	1.50e6	1.47e6	1.09e6	1.14e6
CG2747	1	1.44e6	1.57e6	1.26e6	1.31e6
dia (diaphanous)	1	1.48e6	1.56e6	1.25e6	3.50e5
Taf13 (TBP-associated factor 13)	1	1.47e6	1.54e6	1.22e6	2.75e5
CG13603	1	1.50e6	1.45e6	1.17e6	1.21e6
Mrtf (Myocardin-related transcription factor)	1	1.26e6 (active)	1.42e6	5.76e5	7.30e5
Mrtf (Myocardin-related transcription factor)	2	1.45e6	1.36e6	9.06e5	1.06e6
Mrtf (Myocardin-related transcription factor)	3	1.18e6	1.20e6	1.03e6	1.26e6
mRpL51 (mitochondrial ribosomal protein L51)	1	1.11e6 (active)	1.01e6	7.12e5	6.80e5
Cyp28a5 (Cytochrome P450 28a5)	1	1.54e6	1.60e6	1.27e6	1.18e6
Pi3K59F (Phosphatidylinositol 3-kinase 59F)	1	1.36e6	1.39e6	1.17e6	1.17e6
su(f) (suppressor of forked)	1	1.47e6	1.50e6	1.10e6	1.23e6
btd (buttonhead)	1	1.53e6	1.49e6	1.01e6	1.09e6
Cyp4s3 (Cytochrome P450 4s3)	1	1.59e6	1.53e6	1.16e6	1.28e6
CG31106	1	1.46e6	1.45e6	9.74e5	1.04e6
heca (headcase)	1	1.52e6	1.54e6	8.53e5	9.27e5
sau (sauron)	1	1.11e6	1.35e6	3.36e5	3.87e5
Cds (CDP-diacylglycerol synthase)	1	1.41e6	1.41e6	1.31e6	1.30e6
jv (javelin)	1	1.36e6	1.50e6	1.10e6	1.24e6
jv (javelin)	2	1.42e6	1.55e6	1.09e6	1.24e6
CG4462	1	1.51e6	1.60e6	1.14e6	1.22e6
Ythdf (YTH N6-methyladenosine RNA binding protein)	1	1.46e6	1.47e6	1.02e6	1.04e6
Ythdf (YTH N6-methyladenosine RNA binding protein)	2	1.46e6	1.52e6	9.62e5	1.05e6
Vajk2	1	1.74e6	1.85e6	1.22e6	1.34e6
gw (gawky)	1	3.97e5 (active)		4.59e5	
gw (gawky)	2	1.43e6 (active)	1.37e6	5.88e5	6.73e5
CG2909	1	1.74e6	1.58e6	1.11e6	1.26e6
Cpr49Ah (Cuticular protein 49Ah)	1	1.39e6	1.46e6	1.18e6	1.33e6
Pdfr (Pigment-dispersing factor receptor)	1	1.40e6	1.36e6	9.12e5	9.61e5
CG31109	1	1.50e6	1.60e6	9.31e5	1.06e6
Trm1 (tRNA methyltransferase 1)	1	1.29e6	1.34e6	1.16e6	1.20e6
ProtA (Protamine A)	1	1.51e6	1.61e6	1.32e6	1.45e6
CycH (Cyclin H)	1	1.47e6	1.47e6	1.36e6	1.44e6
Agxt (Alanine-glyoxylate aminotransferase)	1	4.97e5		9.05e5	
RpL35 (Ribosomal protein L35)	1	1.21e6	1.20e6	6.18e5	7.22e5

Targets listed so far whose target name starts with P or p:
gene	reagent	Kc cell number, rep 1	Kc cell number, rep 2	S2R+ cell number, rep 1	S2R+ cell number, rep 2
ppk29 (pickpocket 29)	1	1.57e6	1.62e6	1.34e6	1.44e6
Pi3K59F (Phosphatidylinositol 3-kinase 59F)	1	1.36e6	1.39e6	1.17e6	1.17e6
Pdfr (Pigment-dispersing factor receptor)	1	1.40e6	1.36e6	9.12e5	9.61e5
ProtA (Protamine A)	1	1.51e6	1.61e6	1.32e6	1.45e6
